Source: PMC10265093
These are yes or no findings as the source states them, for the method shown. For some of these results: Binding seen in cells or lysates may run through a third protein. Some results given as binding are weak or reduced against the parent protein; the word gives no strength. For some of these results: Tags and fused reporters may be left off the sequences shown.

Amino acid sequences for entries named in this document (tags omitted).
UniProt Q9NQL2: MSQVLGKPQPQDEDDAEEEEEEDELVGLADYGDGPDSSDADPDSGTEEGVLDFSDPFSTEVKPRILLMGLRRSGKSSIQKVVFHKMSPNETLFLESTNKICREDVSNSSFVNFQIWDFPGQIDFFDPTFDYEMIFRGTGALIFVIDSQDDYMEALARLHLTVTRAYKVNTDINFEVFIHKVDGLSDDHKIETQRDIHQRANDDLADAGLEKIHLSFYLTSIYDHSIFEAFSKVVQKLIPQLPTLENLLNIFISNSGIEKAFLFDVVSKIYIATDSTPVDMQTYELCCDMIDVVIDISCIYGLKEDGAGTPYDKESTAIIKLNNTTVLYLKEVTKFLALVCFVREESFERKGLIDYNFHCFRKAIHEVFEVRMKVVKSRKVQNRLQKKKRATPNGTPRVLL
UniProt P31749: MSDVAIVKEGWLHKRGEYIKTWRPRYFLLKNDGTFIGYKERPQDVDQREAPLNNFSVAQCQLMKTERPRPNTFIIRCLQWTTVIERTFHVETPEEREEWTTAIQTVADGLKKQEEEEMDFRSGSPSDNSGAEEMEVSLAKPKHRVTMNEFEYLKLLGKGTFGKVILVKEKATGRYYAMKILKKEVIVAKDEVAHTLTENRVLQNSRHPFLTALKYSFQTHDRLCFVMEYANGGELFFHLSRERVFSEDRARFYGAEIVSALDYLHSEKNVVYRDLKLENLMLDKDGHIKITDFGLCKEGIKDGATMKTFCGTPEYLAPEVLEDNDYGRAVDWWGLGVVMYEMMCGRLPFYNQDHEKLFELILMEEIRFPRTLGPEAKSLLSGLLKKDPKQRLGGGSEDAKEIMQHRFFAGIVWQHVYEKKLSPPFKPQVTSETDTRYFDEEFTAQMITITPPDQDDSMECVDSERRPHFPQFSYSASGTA
UniProt P31751: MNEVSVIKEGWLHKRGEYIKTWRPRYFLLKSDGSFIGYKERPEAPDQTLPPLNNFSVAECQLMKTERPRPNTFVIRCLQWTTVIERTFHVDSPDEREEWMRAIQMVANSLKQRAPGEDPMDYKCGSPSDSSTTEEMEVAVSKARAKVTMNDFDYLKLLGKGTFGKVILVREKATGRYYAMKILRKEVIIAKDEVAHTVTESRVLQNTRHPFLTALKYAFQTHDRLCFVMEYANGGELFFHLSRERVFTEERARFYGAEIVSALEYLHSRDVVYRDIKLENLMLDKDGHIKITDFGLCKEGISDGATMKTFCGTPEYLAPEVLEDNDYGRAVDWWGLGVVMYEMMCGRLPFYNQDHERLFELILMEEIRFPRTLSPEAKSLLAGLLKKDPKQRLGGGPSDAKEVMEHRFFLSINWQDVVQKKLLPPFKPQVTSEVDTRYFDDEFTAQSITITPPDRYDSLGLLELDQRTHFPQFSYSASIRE
UniProt Q9Y243: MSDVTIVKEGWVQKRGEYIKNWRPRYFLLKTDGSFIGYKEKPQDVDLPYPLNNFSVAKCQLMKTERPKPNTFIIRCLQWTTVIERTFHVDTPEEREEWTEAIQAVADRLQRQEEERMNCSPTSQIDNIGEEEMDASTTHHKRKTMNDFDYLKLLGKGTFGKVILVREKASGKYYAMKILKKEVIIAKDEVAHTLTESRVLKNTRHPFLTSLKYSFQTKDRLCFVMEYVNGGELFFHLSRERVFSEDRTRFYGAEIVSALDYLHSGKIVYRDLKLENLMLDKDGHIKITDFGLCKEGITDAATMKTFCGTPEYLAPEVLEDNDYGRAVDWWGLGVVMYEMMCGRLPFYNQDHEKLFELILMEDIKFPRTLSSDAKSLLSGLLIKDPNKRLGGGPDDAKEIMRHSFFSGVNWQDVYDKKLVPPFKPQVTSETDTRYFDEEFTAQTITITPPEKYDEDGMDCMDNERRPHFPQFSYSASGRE
UniProt Q5VZM2: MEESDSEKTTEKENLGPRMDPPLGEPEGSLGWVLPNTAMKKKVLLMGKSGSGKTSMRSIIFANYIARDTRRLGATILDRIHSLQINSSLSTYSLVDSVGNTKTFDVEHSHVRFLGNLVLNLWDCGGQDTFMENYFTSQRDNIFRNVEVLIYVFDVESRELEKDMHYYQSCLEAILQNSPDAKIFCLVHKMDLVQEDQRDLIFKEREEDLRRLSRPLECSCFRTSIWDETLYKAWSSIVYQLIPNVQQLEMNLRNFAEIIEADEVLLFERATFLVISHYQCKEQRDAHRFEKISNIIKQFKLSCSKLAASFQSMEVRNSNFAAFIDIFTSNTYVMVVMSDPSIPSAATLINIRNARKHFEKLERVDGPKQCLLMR
UniProt Q8N122: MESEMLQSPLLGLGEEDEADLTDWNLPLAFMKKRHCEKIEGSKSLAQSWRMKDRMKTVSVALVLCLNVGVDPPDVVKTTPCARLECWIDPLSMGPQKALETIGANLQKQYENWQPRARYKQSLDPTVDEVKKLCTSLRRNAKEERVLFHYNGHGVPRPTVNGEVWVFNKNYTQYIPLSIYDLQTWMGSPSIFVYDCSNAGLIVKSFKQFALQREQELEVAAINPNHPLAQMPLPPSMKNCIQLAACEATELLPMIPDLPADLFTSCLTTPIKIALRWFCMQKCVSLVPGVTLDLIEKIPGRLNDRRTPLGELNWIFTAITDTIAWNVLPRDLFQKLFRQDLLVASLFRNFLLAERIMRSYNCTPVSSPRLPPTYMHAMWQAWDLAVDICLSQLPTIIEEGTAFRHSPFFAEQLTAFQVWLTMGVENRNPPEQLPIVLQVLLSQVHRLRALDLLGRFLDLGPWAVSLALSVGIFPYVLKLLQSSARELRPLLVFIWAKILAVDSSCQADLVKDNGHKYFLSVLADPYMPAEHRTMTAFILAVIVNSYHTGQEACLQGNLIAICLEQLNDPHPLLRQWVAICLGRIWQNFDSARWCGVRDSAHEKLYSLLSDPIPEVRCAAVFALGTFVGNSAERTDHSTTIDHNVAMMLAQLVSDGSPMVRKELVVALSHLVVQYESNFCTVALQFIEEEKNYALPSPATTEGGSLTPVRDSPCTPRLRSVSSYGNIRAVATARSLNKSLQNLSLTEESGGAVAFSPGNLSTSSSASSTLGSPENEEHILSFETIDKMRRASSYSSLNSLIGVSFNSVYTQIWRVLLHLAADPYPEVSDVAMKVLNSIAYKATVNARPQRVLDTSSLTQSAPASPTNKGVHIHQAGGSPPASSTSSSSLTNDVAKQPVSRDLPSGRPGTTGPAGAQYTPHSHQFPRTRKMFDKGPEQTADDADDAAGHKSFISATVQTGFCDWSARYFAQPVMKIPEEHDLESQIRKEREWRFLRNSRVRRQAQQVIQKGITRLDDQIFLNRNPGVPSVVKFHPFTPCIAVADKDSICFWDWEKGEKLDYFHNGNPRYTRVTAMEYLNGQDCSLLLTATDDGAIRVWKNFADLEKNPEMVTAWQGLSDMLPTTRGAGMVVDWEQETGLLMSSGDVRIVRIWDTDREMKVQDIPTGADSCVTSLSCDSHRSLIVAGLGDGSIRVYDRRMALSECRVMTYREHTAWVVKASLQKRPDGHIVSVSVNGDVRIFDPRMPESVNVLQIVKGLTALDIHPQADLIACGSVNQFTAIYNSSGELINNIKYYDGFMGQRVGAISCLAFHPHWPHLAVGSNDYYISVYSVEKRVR

Key:
Flag-RagD [1] = molecular target: Flag-RagD (UniProt Q9NQL2); assay: co-IP; supplementary figures (S1D,E; S2C-J; S3A-C) whose legends were not shown; constructs and cells not stated
Flag-FLCN [2] = molecular target: T1, Flag-FLCN (UniProt Q8NFG4); assay: as above
T1 sequence: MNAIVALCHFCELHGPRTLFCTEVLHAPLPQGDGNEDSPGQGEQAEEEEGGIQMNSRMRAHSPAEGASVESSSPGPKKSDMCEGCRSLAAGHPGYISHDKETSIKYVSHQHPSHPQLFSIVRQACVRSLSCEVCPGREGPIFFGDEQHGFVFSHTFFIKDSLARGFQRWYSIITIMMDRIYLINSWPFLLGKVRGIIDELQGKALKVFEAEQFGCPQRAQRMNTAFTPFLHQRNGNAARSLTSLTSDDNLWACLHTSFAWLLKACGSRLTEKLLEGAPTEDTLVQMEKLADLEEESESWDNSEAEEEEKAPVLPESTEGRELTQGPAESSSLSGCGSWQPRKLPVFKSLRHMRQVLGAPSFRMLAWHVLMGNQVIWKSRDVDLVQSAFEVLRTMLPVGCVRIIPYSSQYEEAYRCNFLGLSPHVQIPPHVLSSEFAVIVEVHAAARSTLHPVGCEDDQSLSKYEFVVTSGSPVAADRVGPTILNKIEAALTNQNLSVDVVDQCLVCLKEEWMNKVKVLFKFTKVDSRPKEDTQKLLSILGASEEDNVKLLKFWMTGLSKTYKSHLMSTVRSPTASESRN

Flag-FLCN [3] = molecular target: T1, Flag-FLCN; assay: pull-down; in vitro; immunoprecipitates (HA and Flag antibodies) prepared from lysates of HEK-293T cells; bound protein detected by Western blot; both purified
Flag-FLCN [4] = molecular target: T1, Flag-FLCN; assay: co-IP; both partners tagged and overexpressed in transfected HEK293T cells; CHAPS lysis buffer (40 mM HEPES pH 7.4, 120 mM NaCl, 1 mM EDTA, 0.3% CHAPS); HA-conjugated beads or M2 beads 2-3 h; immunoblot; in some panels cells starved of amino acids and serum 24 h, then insulin
Flag-RagD [5] = molecular target: Flag-RagD (UniProt Q9NQL2); assay: as above
[6] = molecular target: endogenous AKT1 (human (endogenous in HEK293T and HCT116)) (UniProt P31749); assay: co-IP; endogenous proteins; endogenous AKT or RagC immunoprecipitated with anti-AKT or anti-RagC polyclonal antibody; HEK293T (Figure 2H) or HCT116 (Figures 3F, 4D); cells starved of amino acids and serum 24 h, then insulin 30 min
Flag-RagD [7] = molecular target: Flag-RagD (UniProt Q9NQL2); assay: co-IP; Flag-tagged Rag overexpressed in HEK293T, endogenous Raptor detected; cells starved of amino acids and serum 24 h, then insulin 0-30 min, alone or with MK2206 or Torin1

Substance: AKT2 (from UniProt P31751 1-481) (enzyme)
- binding (Flag-RagD [1]): binds weakly

Substance: AKT3 (from UniProt Q9Y243 1-479) (enzyme)
- binding (Flag-RagD [1]): binds weakly

Substance: HA-AKT1 (from UniProt P31749 1-480) (enzyme)
- binding (Flag-FLCN [2]): binds
- binding (Flag-RagD [1]): binds
- binding (Flag-FLCN [3]): binds
- binding (Flag-FLCN [4]): binds
- binding (Flag-RagD [5]): binds

Substance: RagB (from UniProt Q5VZM2 1-374)
- binding (Flag-RagD [1]): binds

Substance: endogenous RagD (from UniProt Q9NQL2 1-400)
- binding [6]: binds

Substance: endogenous regulatory-associated of mTOR (Raptor) (from UniProt Q8N122 1-1335)
- binding (Flag-RagD [7]): binds
